Test results taken from PubChem BioAssay AID2685 (National Center for Advancing Translational Sciences (NCATS), 2010).
About 2,100 (0.66%) of roughly 320,000 compounds were called active. The inconclusive results got no clear call from the source; some entries with a clear call stand among them for comparison. Calls come from the whole dose curve; as a rule, active = well fitted inhibition curve with a large enough effect in the signal ratio, with a control signal flat (not every such curve was filed as active); inconclusive = small, poorly fitted or top-dose-only effect, or effect the other way, or a change in a side signal; inactive = flat fitted curve, though single readings scatter; the % refers to the signal ratio. Where the call is inconclusive, the potency comes from a doubtful curve fit.

Assay: qHTS Assay for Lipid Storage Modulators in Drosophila S3 Cells
Settings: BODIPY lipid droplet fluorescence, 18-24 h, cells fed with added oleic acid; lipid storage change, negative = inhibition: at 46.1 µM (top of the series) unless noted
How it was run: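 Drosophila S3 cells got compounds at several concentrations plus oleic acid (400 uM solution). Laser-scanning cytometry with 488 nm excitation read lipid droplets at 500-530 nm and cells at 575-640 nm. Percent activity was relative to 20 uM Triacsin C.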
% is set by controls: 0 for no effect and ±100 for the full control effect; potency is the fitted concentration of half-maximal effect.

Row | Structure (SMILES) | lipid storage change, negative = inhibition | Potency
1 | CCN(CC)S(=O)(=O)c1cccc(NC(=O)c2cncc(Br)c2)c1 | inconclusive: -17% [at 9.22 µM] | –
2 | CC(=O)c1cccc(NC(=O)c2cc(-c3ccc(C)cc3)on2)c1 | inconclusive: 8.27% | –
3 | O=C(CN1CCN(c2ccc(F)cc2)CC1)c1ccc(O)cc1O | – | inconclusive: 0.058 µM [falling, full curve, poor fit]
4 | COc1ccccc1N1CCN(C(=O)NCc2cccc(C(F)(F)F)c2)CC1 | – | inconclusive: 29.1 µM [activator, single point]
5 | COc1ccccc1N1CC(C(=O)Nc2nc(C)cs2)CC1=O (stereo not drawn) | inconclusive: 53.4% | –
6 | Cc1c(Cl)cccc1NCC(=O)NN=C1CCCC1 | inconclusive: -10.2% | –
7 | COCCn1c(NC(=S)NC(=O)C2CC2)cc(=O)[nH]c1=O | inconclusive: 63.1% | –
8 | O=C(CNC(=O)c1ccco1)Nc1ccc2c(c1)OCCO2 | inconclusive: -6.52% | –
9 | CCN(CC)CCNc1nc(C(F)(F)F)nc2c1nnn2Cc1ccccc1 | inconclusive: 27% | –
10 | CCNC(=O)C12CCC(C)(c3nc4cc(C)c(C)cc4nc31)C2(C)C (stereo not drawn) | inconclusive: -16.7% | –
11 | Fc1ccc(CNC(=S)Nc2cccc(Cl)c2)cc1 | inconclusive: 38.3% | –
12 | CN(Cc1cc(=O)n2ccsc2n1)c1ccccc1 | inconclusive: -62.7% | –
13 | CC(=O)c1ccc(N2CCN(C(=O)c3nn(C)c4c3CS(=O)(=O)c3ccccc3-4)CC2)cc1 | – | inconclusive: 6.51 µM [activator, single point]
14 | COc1ccc(OC)c(C2Nc3ccccc3NC3=C2C(=O)CC(C)(C)C3)c1 (stereo not drawn) | – | inconclusive: 29.1 µM [activator, single point]
15 | O=S(=O)(NCc1ccc(C(F)(F)F)cc1)c1ccc(-n2cnnn2)cc1 | – | inconclusive: 6.51 µM [activator, partial curve]
16 | Cc1cc(C(=O)CSc2n[nH]c(N)n2)c(C)n1-c1cccc(F)c1 | – | inconclusive: 0.082 µM [activator, full curve, poor fit]
17 | CCCCn1c(N)c(N(CC(C)C)C(=O)C2CC(=O)N(c3ccc4c(c3)OCCO4)C2)c(=O)[nH]c1=O (stereo not drawn) | inconclusive | –
18 | N#Cc1cc([N+](=O)[O-])ccc1NC(=O)COC(=O)C12CC3CC(CC(C3)C1)C2 | inconclusive: -25.9% | –
19 | CNC(=S)Nc1cc2oc3ccccc3c2cc1OC | inconclusive: 35.9% | –
20 | Cc1ccc(N(CCC#N)C(=O)CSc2nnc3ccccn23)cc1 | – | inconclusive: 1.46 µM [activator, full curve]
21 | C=CCn1c(SCC(=O)Nc2cc(C)ccc2C)nnc1-c1cnccn1 | inconclusive: 22.6% | –
22 | Cc1cc(C)nc(Nc2n[nH]c(COc3cccc4ccccc34)n2)n1 | inconclusive: 50.2% | –
23 | Cc1ccc(N2C(=O)C3CCCN3C2=S)c(C)c1 (stereo not drawn) | inconclusive: -8.46% | –
24 | CCN(CC)CCNc1nc(-c2ccccc2)nnc1C(F)(F)F | inconclusive: -32.2% | –
25 | O=C(/C=C/c1ccc([N+](=O)[O-])cc1)NCc1ccccn1 | – | inconclusive: 16.4 µM [activator, partial curve]
26 | Cc1nnc(SCC(=O)c2ccc([N+](=O)[O-])cc2)s1 | inconclusive: -46.1% | –

Row | Structure (SMILES) | lipid storage change, negative = inhibition | Potency
27 | COc1cccc(N2CCN(C(C)C(=O)NC34CC5CC(CC(C5)C3)C4)CC2)c1 (stereo not drawn) | – | active: 1.3 µM
28 | O=C(NCc1ccco1)C1CCN(C(=O)Cc2ccccc2)CC1 | inconclusive: -62.2% | –
29 | CC(=O)c1ccc(S(=O)(=O)Nc2ccc(C(=O)NCC(c3ccccc3)N(C)C)cc2)cc1 (stereo not drawn) | inconclusive: 30.6% | –
30 | O=C1/C(=C/c2ccco2)SC(=S)N1CC1CCCO1 (stereo not drawn) | inconclusive: 17.5% | –
31 | CCN1CCN(/C=N/c2nc3c(s2)CCCC3)CC1 | – | inconclusive: 0.0046 µM [falling, full curve, poor fit]
32 | CCOC(=O)C1CCN(S(=O)(=O)c2c(C)[nH]c(=O)[nH]c2=O)CC1 | – | inconclusive: 29.1 µM [falling, single point]
33 | COc1c(C(=O)N2CCCC2)ccc2ccccc12 | – | inconclusive: 25.9 µM [cytotoxic, partial curve, poor fit]
34 | COC(=O)N/N=C/c1ccccc1 | inconclusive: 9.22% | –
35 | O=C(c1ccccc1NS(=O)(=O)c1ccccc1[N+](=O)[O-])N1CCCC1 | inconclusive: 2.56% | –
36 | CCCCn1c(N)c(N(Cc2ccccc2OC)C(=O)C(C)Oc2ccc(F)cc2)c(=O)[nH]c1=O (stereo not drawn) | inconclusive: 5% | –
37 | CN(C)CCn1c2c(c(SCC(=O)NCc3ccccc3)nc1=O)CCC2 | – | inconclusive: 0.058 µM [falling, full curve, poor fit]
38 | CCOC(=O)c1c(C)nc2sc3c(=O)[nH]cnc3c2c1-c1ccc(OC)cc1 | inconclusive: 13.3% | –
39 | CC(=O)c1ccc(S(=O)(=O)NCCC(=O)OCC(=O)N2CCCC2=O)cc1 | inconclusive | –
40 | O=C(NCC1CCCN1S(=O)(=O)c1cccs1)c1ccc(F)cc1 (stereo not drawn) | inconclusive | –
41 | CCOC(=O)C1CCN(C(=O)CNC(=O)OC(C)(C)C)CC1 | inconclusive: -5.64% | –
42 | Cc1ccc(Cl)cc1NS(=O)(=O)c1cn(C)nc1C | inconclusive: -14.5% | –
43 | CC(C1CCN(Cc2cn(C)nc2-c2cccc(Cl)c2)CC1)N1CCOCC1 (stereo not drawn) | – | inconclusive: 0.259 µM [falling, full curve, poor fit]
44 | COc1ccc(-c2nn(CC(=O)N3CCCCC3)c(=O)c3ccccc23)cc1 | inconclusive: -32.2% | –
45 | Cc1ccc(C(=O)Nc2ccc(Cc3ccncc3)cc2)cc1[N+](=O)[O-] | – | inconclusive: 29.1 µM [rising, single point]
46 | Cc1cccc(N2C(=O)CC(Sc3nc(C)cc(C)n3)C2=O)c1 (stereo not drawn) | – | inconclusive: 1.46 µM [activator, full curve, poor fit]
47 | O=C(NC1CCCCC1)c1cc(-c2ccco2)on1 | inconclusive: 5.78% | –
48 | CCOC(=O)N1CCC(NC(=O)c2cccs2)CC1 | – | inconclusive: 25.9 µM [falling, partial curve]
49 | CCOc1cccc(/C=C2\NC(=S)N(c3ccccc3)C2=O)c1O | inconclusive: 8.18% | –
50 | COc1ccc(Cc2nnc(SCC(=O)c3ccc4c(c3)OCO4)o2)cc1 | inconclusive: -5.92% | –
51 | CCN1CCN(c2ccc(S(=O)(=O)N3CCCCC3)cc2NC(=O)c2ccc(F)cc2)CC1 | inactive | –
52 | CC1(C)CC(c2csc(N)n2)CCO1 (stereo not drawn) | – | inconclusive: 2.91 µM [activator, single point]

Row | Structure (SMILES) | lipid storage change, negative = inhibition | Potency
53 | C=CCSc1ccccc1C(=O)Nc1ncn[nH]1 | – | inconclusive: 2.91 µM [activator, single point]
54 | CC(=O)C1=C(C)NC(SCC(N)=O)=C(C#N)C1c1cccnc1 (stereo not drawn) | inconclusive: 15.3% | –
55 | COc1ccc(C2CC(=O)c3cnc(Nc4cc(C)cc(C)c4)nc3C2)cc1 (stereo not drawn) | inconclusive: 6.97% | –
56 | Cc1c(S(=O)(=O)NCCc2ccccc2)c(=O)n(C)c(=O)n1C | – | inconclusive: 4.11 µM [falling, full curve, poor fit]
57 | Nc1sc(-c2ccccc2)n[n+]1Cc1cccc2cccnc12 | – | inconclusive: 29.1 µM [falling, single point]
58 | CCCNC(=O)Cc1cc(=O)[nH]c(=O)[nH]1 | inconclusive: -8.8% | –
59 | S=c1[nH]nc(Nc2ccccc2Cl)s1 | inconclusive: -18% | –
60 | O=C(NCC1COc2ccccc2O1)c1ccc(NC(=O)C(c2ccccc2)c2ccccc2)cc1 (stereo not drawn) | inconclusive: -20.6% | –
61 | COc1ccc(NC(=O)C2CCCN(c3cnccn3)C2)cc1 (stereo not drawn) | inconclusive: 49.2% | –
62 | COc1cc(OC)cc(C(=O)NC(=S)N(Cc2ccccc2)C(C)C)c1 | – | inconclusive: 0.146 µM [falling, full curve, poor fit]
63 | CNc1nnc(SCC(=O)N2c3ccccc3NC(=O)CC2C)s1 (stereo not drawn) | – | inconclusive: 29.1 µM [activator, single point]
64 | COc1ccc(Cl)cc1NC(=O)C1CCCN(c2cc(C)nc3ncnn23)C1 (stereo not drawn) | – | inconclusive: 3.26 µM [activator, partial curve]
65 | Cc1ccc(S(=O)(=O)N2CCCC2C(=O)NCc2ccncc2)cc1 (stereo not drawn) | – | inconclusive: 0.206 µM [falling, full curve, poor fit]
66 | Cc1cc([N+](=O)[O-])ccc1NC(=O)CCC(=O)N1CCCC1 | – | inconclusive: 29.1 µM [activator, single point]
67 | O=C(NNC1=C(C(=O)C(F)(F)F)CCC1)c1ccc(Cl)cc1 | inconclusive: 35.6% | –
68 | O=C(c1cc(-c2ccccc2)nc2ccccc12)N1CCCc2ccccc21 | inconclusive: 29.9% | –
69 | OCCN1CCN(CCSc2ccccc2)CC1 | inactive | –
70 | C[N+]1(CCC(=O)c2ccccc2)CCCCC1 | inactive | –
71 | COc1ccc(C(CCNCc2ccc(OC)c(OC)c2)c2ccc(F)cc2)cc1 (stereo not drawn) | inconclusive: -23.6% | –
72 | COCCOC(=O)C1=C(C)NC(C)=C(C(=O)OC(C)C)C1c1cccc([N+](=O)[O-])c1 (stereo not drawn) | inconclusive: -6.1% | –
73 | COc1ccc(C2CC(C(F)(F)F)n3nc(C(=O)O)cc3N2)cc1OC (stereo not drawn) | inactive | –
74 | Cc1cc(N2CCN(C)CC2)ccc1NC(=O)c1cccc(S(=O)(=O)N2CCc3ccccc3C2)c1 | inconclusive: -77.9% | –
75 | CCCCNC(=O)CCn1c(=O)c2ccccc2n(Cc2ccc(F)cc2)c1=O | inconclusive: 8.23% | –
76 | NC(=S)Nc1ccc(S(=O)(=O)c2ccc(NC(N)=S)cc2)cc1 | inconclusive: -4.71% | –
77 | O=C(Nc1cccc(Cl)c1N1CCOCC1)c1cccnc1 | inconclusive: 314% | –
78 | Cc1ccc(-n2c(SCC(=O)NCc3ccco3)nc3sc4c(c3c2=O)CC(C)(C)SC4)cc1 | inconclusive: -52.4% | –

Structural class: those above with a cyano group (3)
Row | Structure (SMILES) | lipid storage change, negative = inhibition | Potency
18 | N#Cc1cc([N+](=O)[O-])ccc1NC(=O)COC(=O)C12CC3CC(CC(C3)C1)C2 | inconclusive: -25.9% | –
20 | Cc1ccc(N(CCC#N)C(=O)CSc2nnc3ccccn23)cc1 | – | inconclusive: 1.46 µM [activator, full curve]
54 | CC(=O)C1=C(C)NC(SCC(N)=O)=C(C#N)C1c1cccnc1 (stereo not drawn) | inconclusive: 15.3% | –
